Source: paper PMC2905391
Results are given in words; binding and its absence hold for the method and conditions named. Binding seen in cells or lysates may run through a third protein. Binding calls can cover weak binding; strength is not graded here.

Protein sequences, listed by entry. Tags and fused reporters are not part of them. Lines headed by an entry give the natural chain unless they say otherwise; changes in a name come on top.
UniProt P13020: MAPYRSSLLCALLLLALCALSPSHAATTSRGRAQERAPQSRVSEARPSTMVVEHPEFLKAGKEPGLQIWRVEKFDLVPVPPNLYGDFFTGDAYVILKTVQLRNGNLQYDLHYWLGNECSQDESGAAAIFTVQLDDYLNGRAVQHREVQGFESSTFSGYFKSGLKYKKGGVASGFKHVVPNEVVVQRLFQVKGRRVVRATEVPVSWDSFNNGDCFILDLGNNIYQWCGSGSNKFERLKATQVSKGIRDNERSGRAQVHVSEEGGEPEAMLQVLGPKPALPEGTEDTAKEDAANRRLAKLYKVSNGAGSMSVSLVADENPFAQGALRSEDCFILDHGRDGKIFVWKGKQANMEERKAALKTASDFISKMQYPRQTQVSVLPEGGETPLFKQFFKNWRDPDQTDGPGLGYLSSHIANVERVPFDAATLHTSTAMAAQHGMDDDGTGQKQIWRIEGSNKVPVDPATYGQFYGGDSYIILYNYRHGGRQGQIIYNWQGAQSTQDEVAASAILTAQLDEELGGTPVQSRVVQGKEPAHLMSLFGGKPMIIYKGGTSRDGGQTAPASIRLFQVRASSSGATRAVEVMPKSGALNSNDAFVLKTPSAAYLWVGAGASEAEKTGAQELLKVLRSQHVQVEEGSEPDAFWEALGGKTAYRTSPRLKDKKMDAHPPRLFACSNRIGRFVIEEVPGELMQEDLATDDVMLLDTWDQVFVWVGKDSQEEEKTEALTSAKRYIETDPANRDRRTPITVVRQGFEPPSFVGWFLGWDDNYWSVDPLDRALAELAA

Molecular target: T1, p55 (MAGUK protein) (mouse (endogenous in inner ear)) (UniProt P70290)
T1 sequence: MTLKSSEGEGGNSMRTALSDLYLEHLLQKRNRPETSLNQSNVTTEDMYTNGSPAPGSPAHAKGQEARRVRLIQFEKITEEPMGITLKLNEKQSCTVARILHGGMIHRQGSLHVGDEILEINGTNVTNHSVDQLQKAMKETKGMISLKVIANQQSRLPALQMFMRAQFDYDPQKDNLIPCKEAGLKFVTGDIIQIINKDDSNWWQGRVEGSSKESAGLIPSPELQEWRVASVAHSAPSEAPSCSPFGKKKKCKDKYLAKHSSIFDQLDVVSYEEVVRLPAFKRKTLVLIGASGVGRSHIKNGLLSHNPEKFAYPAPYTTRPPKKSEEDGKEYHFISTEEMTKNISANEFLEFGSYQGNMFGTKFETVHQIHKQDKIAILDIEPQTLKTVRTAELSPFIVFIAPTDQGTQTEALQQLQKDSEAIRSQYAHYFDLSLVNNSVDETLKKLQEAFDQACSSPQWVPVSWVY
Assay: co-IP; immunoprecipitation from mouse inner ear lysate with anti-p55 antibody linked to agarose beads, normal goat IgG as negative control; western blot with anti-gelsolin antibody

gelsolin (from UniProt P13020)
binding: binds
